Measured values as given in patent US20250059201A1, “CAMPTOTHECIN COMPOUND AND CONJUGATE THEREOF” (priority 2021, published 2025).
These are yes or no findings as the source states them, for the method shown. Some entries that bind do so weakly or less than the wild type.

Biological target: T1, Trop-2 on BxPC-3 cells (human, UniProt P09758 27-323)
T1 construct: whole, on cells; also called Trop-2-positive BxPC-3 tumor cells
T1 sequence (looked up): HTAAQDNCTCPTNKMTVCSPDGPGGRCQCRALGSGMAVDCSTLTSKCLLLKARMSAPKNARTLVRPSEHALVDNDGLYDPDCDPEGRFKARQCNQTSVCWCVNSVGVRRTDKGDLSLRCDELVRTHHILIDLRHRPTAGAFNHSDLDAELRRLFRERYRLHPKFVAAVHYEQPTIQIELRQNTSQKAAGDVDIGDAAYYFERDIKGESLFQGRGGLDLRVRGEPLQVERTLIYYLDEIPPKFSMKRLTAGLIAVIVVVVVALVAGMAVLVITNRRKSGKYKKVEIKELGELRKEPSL
Assay: flow cytometry on BxPC-3 cells

binding: binds
B1: Antibody h23-12 (antibody, human IgG1, kappa, V domains shown)
VH: QVQLVQSGAEVKKPGASVKVSCKASGYTFTSYWMHWVRQAPGQGLEWMGEITPSDNYGSYNQKFKGRVTITRDTSTSTAYMELSSLRSEDTAVYYCARGHGNYVSFDYWGQGTLVTVSS
VL: DIQMTQSPSSLSASVGDRVTITCRASQDISNYLNWYQQKPGKAPKLLIYYTSRLESGVPSRFSGSGSGTDFTLTISSLQPEDFATYFCQQGYTLPPYTFGQGTKLEIKR
notes: Monoclonal antibody; also called the mAb in Trop2-ADC-14; anti-Trop-2 antibody h23-12
